Source: patent US8183342B2, “Method of treating chemotherapy-induced thrombocytopenia” (Case Western Reserve University, priority 2007, dated 2012)
Not every detail of the peptide structures is certain; ends, links or a residue may be inferred. Some entries repeat one wording, which the source may state once for all of them. Where a SMILES comes first, the peptide text is derived from it. Where no end group is shown, it is not given here.

Chains of the proteins cited; added tags and fusions are not shown.
UniProt Q07812, whole entry: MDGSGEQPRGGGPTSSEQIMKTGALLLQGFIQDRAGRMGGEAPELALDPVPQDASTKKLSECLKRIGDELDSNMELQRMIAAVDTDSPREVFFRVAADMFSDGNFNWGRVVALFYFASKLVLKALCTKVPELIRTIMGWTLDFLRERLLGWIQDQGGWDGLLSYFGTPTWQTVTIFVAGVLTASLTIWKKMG

Key:
[1] = tested on: primary cultured mouse megakaryocytes; experiment: Platelet formation in vitro (Integrin αIIB positive platelet like particles, flow cytometry); format: cell-based; settings: general statement of the description
Method: After the pre-incubation with the peptides, 1 mM EDTA and 50 ng/ml prostaglandin E1 (Sigma) dissolved in ethanol were added to the cell culture before the centrifugation (700 g) at room temperature (RT) for 10 min. The platelets were washed with 300 μl of tyrodes buffer (pH 7.4) containing 2.5 mg/ml BSA and 1 mg/ml glucose. Then 2 μl of anti CD16/anti CD32 (BD Phaminogen™) was added to the platelets. The platelets were incubated at RT for 10 min. The platelets were divided into 3 sets, and 2 μl of rat IgG1 κ phycoerythrin (PE) labeled isotype control (Pharmingen) was added to one sample, and 2 μl of PE labeled antibody of intregin αIIB PE (Santa Cruz) was added to the other two samples. The platelets were incubated at RT for 30 min. Finally, 5 μl of Flow-Count™ Fluorospheres (Beackman-Coulter™) was added to the sample as platelet size marker. The platelets were detected with a FACScan flow cytometer system (Becton Dickinson; BD LSRII) using cellquest software. Each point in the figures showing percent apoptosis represents the mean±SEM of three experiments.

[2] = tested on: primary cultured mouse megakaryocytes; experiment: Etoposide-induced apoptosis in primary cultured mouse megakaryocytes; format: cell-based; settings: general statement of the description
Bax [3] = molecular target: T1, Bax (Homo sapiens, UniProt Q07812); experiment: Mitochondrial translocation of Bax in cells under apoptotic stress; format: cell-based; settings: peptide delivered into cells; UV-irradiation, staurosporin-treatment
[4] = molecular target: T2, interaction of Ku70 and Bax (Homo sapiens, UniProt Q07812); experiment: Inhibition of the interaction of Ku70 and Bax in cell lysates; format: binding; settings: lysates from HeLa cells and human kidney epithelial 293 cells
T2 construct: lysates prepared from human cultured cells (HeLa cells and human kidney epithelial 293 cells); endogenous in cells; host or cells: HeLa cells; human kidney epithelial 293 cells
Method: The Bax-binding domain in Ku70 comprises 6 amino acids (VPMLKE, SEQ ID NO: 1). This peptide (Ku70 Peptide) inhibits the interaction of Ku70 and Bax at the concentration of 20-80 μM in lysates prepared from human cultured cells (HeLa cells and human kidney epithelial 293 cells).

Bax [5] = molecular target: T1, Bax; experiment: Anti-Bax activity of peptides in cells (description); format: cell-based
Bax [6] = molecular target: T1, Bax; experiment: Binding to Bax in vitro (description)

With VPMLKE [VPMLKE] the “ability of the megakaryocytes to produce and release platelets” value (shortened to “ability of the megakaryocytes”) [1] was “without substantially affecting”, the “cell death of megakaryocytes treated with Etoposide” value (“cell death” for short) [2] was “suppressed cell death” and the “mitochondrial translocation of Bax” value (Bax [3]) was “inhibits mitochondrial translocation of Bax”. For the same compound, the “concentration at which the peptide inhibits the interaction of Ku70 and Bax” value [4] was 20 to 80 µM.
For `CSCC[C@H](NC(=O)[C@@H]1CCCN1)C(=O)N[C@@H](CC(C)C)C(=O)N[C@@H](CCCCN)C(=O)O` [PMLK] (H-PMLK-OH; N-terminus and C-terminus assumed), the “biological (anti-Bax) activity in cells” value (Bax [5]) was “not biologically active”, the “ability of the megakaryocytes” value [1] was “without substantially affecting” and the “binding to Bax in vitro” value (Bax [6]) was “sufficient to bind Bax in vitro”. The “cell death” value [2] was “suppressed cell death”.
VPMLK [VPMLK] was tested, and the “biological (anti-Bax) activity in cells” value (Bax [5]) was “express anti-Bax activity in cells”, the “effectiveness to suppress Bax” value (Bax [5]) was “equally effective to suppress Bax” and the “ability of the megakaryocytes” value [1] was “without substantially affecting”. The “cell death” value [2] was “suppressed cell death”.
For PMLKE [PMLKE], the “biological (anti-Bax) activity in cells” value (Bax [5]) was “express anti-Bax activity in cells”, the “effectiveness to suppress Bax” value (Bax [5]) was “equally effective to suppress Bax” and the “ability of the megakaryocytes” value [1] was “without substantially affecting”. The “cell death” value [2] was “suppressed cell death”.
For VPALR [VPALR], the “biological (anti-Bax) activity in cells” value (Bax [5]) was “express anti-Bax activity in cells”, the “ability of the megakaryocytes” value [1] was “without substantially affecting” and the “cell death” value [2] was “suppressed cell death”.
